## Results of single-concentration screens

Sequences of proteins named here, by UniProt entry; tags and fusion partners are left off. Residues count along the entry.
UniProt P9WNZ1, whole entry: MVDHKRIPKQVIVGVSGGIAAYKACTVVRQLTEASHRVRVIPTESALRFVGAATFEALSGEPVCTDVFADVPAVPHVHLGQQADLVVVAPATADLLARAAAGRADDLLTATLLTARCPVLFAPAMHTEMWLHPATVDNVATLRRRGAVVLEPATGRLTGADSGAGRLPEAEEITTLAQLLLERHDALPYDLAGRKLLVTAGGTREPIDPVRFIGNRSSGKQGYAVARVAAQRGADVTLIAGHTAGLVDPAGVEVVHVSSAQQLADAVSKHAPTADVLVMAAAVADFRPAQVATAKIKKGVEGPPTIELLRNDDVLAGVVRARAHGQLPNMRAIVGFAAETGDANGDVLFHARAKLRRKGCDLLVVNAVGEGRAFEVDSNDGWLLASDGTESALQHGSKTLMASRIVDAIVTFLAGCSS
UniProt Q8IDJ8, 1-583: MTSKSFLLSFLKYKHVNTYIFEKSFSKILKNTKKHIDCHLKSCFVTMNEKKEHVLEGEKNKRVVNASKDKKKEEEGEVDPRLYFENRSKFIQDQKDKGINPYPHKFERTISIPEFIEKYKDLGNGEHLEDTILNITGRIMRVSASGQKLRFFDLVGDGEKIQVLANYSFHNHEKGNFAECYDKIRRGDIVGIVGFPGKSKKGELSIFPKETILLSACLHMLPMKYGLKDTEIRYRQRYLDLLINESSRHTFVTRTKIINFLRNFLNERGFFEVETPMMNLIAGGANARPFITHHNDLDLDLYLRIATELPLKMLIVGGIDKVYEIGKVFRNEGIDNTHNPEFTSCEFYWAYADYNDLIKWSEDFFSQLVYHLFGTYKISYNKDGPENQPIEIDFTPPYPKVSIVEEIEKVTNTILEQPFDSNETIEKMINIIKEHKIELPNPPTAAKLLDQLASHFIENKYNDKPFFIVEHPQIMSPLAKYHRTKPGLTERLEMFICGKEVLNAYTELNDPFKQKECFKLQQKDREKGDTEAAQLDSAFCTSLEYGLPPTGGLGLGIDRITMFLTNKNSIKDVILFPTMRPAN
UniProt P9WFT3, whole entry: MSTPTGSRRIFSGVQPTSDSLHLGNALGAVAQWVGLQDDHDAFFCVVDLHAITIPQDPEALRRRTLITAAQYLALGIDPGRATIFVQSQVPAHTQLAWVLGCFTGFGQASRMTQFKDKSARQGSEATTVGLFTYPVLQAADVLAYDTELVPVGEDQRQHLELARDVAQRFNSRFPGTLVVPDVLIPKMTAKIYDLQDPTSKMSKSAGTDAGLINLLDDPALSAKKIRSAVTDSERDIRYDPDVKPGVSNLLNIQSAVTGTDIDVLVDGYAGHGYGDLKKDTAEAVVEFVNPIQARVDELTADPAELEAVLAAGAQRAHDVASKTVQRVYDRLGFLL
UniProt I6X8D2, whole entry: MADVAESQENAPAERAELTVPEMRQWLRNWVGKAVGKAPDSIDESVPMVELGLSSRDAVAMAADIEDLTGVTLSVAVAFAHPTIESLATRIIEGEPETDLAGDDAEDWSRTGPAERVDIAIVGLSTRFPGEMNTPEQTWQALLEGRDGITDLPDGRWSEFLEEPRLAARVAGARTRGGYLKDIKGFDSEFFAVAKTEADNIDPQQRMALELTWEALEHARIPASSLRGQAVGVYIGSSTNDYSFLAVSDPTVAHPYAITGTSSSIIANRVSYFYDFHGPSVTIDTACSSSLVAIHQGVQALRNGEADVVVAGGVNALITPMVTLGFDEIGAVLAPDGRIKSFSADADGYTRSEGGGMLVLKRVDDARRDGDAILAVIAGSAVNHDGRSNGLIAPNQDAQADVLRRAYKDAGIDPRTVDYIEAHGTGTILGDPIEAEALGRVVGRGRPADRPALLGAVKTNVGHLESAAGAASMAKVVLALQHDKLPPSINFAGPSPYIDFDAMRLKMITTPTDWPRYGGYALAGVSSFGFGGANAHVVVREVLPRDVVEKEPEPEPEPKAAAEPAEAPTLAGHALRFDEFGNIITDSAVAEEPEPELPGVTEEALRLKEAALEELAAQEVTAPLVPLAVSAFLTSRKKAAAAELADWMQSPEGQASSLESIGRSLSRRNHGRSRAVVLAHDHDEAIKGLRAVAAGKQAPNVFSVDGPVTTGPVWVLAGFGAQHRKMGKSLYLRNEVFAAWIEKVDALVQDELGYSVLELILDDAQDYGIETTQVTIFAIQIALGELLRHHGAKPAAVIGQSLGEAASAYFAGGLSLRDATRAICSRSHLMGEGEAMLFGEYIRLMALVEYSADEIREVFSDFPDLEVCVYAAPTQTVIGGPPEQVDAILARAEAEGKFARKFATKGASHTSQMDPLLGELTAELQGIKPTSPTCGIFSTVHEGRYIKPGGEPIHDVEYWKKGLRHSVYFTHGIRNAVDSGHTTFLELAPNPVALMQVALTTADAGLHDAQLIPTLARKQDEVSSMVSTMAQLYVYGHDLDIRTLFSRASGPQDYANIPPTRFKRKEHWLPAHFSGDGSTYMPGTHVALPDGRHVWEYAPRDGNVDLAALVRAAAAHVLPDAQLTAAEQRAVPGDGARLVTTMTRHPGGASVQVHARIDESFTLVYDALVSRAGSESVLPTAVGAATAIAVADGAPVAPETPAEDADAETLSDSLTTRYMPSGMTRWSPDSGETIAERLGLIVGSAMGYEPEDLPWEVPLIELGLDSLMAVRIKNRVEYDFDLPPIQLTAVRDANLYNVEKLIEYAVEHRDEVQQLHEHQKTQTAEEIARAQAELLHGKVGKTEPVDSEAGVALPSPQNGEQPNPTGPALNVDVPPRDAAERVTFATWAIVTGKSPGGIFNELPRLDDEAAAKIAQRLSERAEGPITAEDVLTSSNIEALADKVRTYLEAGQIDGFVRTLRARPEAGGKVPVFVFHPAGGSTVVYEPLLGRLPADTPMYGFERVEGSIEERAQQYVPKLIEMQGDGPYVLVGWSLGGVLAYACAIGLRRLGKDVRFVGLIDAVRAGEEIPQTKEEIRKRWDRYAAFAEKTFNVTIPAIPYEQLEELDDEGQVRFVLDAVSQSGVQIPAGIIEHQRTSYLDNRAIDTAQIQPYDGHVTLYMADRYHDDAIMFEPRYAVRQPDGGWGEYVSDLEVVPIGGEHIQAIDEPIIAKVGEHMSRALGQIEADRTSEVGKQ

Source: ChEMBL document CHEMBL3988442, “University of Dundee, Small-Polar-MMV Screening Library” (2021).

A: 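Enzyme assay of CoaBC with a phosphate dye (Biomol Green) read at 650 nm. Target: Coenzyme A biosynthesis protein CoaBC, Mycobacterium tuberculosis (UniProt P9WNZ1). Compounds at 30 µM. Direction is inferred from only a few compounds that gave an IC50; most scored high, so higher reads as stronger inhibition. Most strong results did not repeat in a second test. About 67,000 compounds were tested under these conditions; 0.06% (about 40) showed 50% or more at least once.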
B: 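Lysine-tRNA ligase, Plasmodium falciparum 3D7 (UniProt Q8IDJ8). Enzyme assay of the cytosolic lysyl-tRNA synthetase in 384-well plates, read by luminescence. Compounds at 30 µM. Higher reads as stronger inhibition, judged from the few compounds that gave an IC50. Of about 69,000 compounds tested this way, about 49 (0.071%) reached 50% or more in at least one test.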
C: 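Assay of Toxoplasma gondii numbers, read through their beta-galactosidase reporter with a colour substrate. Concentration: 10 µM. Higher reads as fewer parasites (inferred from which compounds were picked for retests). Size under these conditions: about 67,000 compounds, about 260 of them at 50% or above in at least one test.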
D: 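Tryptophan-tRNA ligase, Mycobacterium tuberculosis (UniProt P9WFT3). Enzyme assay of tryptophanyl-tRNA synthetase; the read-out is not stated. Concentration: 10 µM. Direction is not recorded; retested compounds ran higher, which suggests that high means inhibition. About 65,000 compounds were tested under these conditions; 0.098% (about 64) showed 50% or more at least once.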
E: 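Enzyme assay of the thioesterase domain of polyketide synthase 13; the read-out is not stated. Target: Polyketide synthase Pks13, Mycobacterium tuberculosis (UniProt I6X8D2). Tested at 30 µM. Higher reads as stronger inhibition (inferred from which compounds were picked for retests). Of about 67,000 compounds tested this way, about 300 (0.46%) reached 50% or more in at least one test.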

Values are the deposited “Percent Effect”, in %. How 0% and 100% were set is not recorded. Most values in the screen are low, and negative values occur. The compounds are a random part of those screened. A dash means the value is not listed here; it may have been measured.

structure | A | B | C | D | E
COC(=O)CCNC(=O)c1c[nH]cc1-c1ccccc1OC | 8.266% | -0.1833% | -0.6351% | -3.431% | 0.2088%
N#Cc1cc(C(F)(F)F)ccc1NCC1CCS(=O)(=O)CC1 | 6.456% | 2.805% | -1.202% | 3.436% | 8.971%
O=C1NC(c2ccccc2)=N[C@@]12CC[C@@H]1CN(S(=O)(=O)C3CC3)C[C@@H]12 | 7.097% | -1.326% | - | 10.13% | 4.396%
O=C(O)C(F)(F)F.[H][C@@]12CN(Cc3cccc(C)n3)C[C@]1([H])C(=O)N(CCOC)C2 | - | - | 7.286% | - | -
COCC(O)CNC(=O)c1coc(COc2cccc(F)c2)n1 (configuration not stated) | -4.673% | 8.535% | -6.274% | -1.954% | -27.42%
O=C(c1ccc(F)c(F)c1)N1C[C@H]2CNC[C@H]2C1 | 1.018% | 3.9% | - | -6.386% | -4.438%
CCS(=O)(=O)Cc1nnnn1-c1ccccc1 | 6.646% | 7.808% | -0.7088% | -3.66% | -33.16%
CN(C)C(=O)n1c(C(=O)NC(C)(C)CO)cc2c1c1ccccc1n2C | 1.42% | 2.381% | -5.353% | -1.451% | 11.98%
CS(=O)(=O)Cc1ccc(C(=O)N2CCCC(n3cncn3)C2)o1 (configuration not stated) | 9.759% | 3.943% | 15.88% | 3.011% | -23.66%
Cc1nccn1CCC1CCCCN1C(=O)c1ccc2[nH]nnc2c1 (configuration not stated) | 5.804% | 5.962% | -4.736% | 1.421% | -61.25%
CC(C)(C)CC(=O)N1CSCC1C(=O)NCc1cccc(C#N)c1 (configuration not stated) | -5.353% | -0.4791% | -109% | 16.83% | -7.85%
Cc1cc(CN(C)C(=O)Nc2cnc3c(c2)c(C)nn3C)no1 | 4.348% | 3.222% | 10.17% | -4.913% | -31.99%
CCSc1ncc(CN2CCC(O)(CN3CCOCC3)C(C)(C)C2)cn1 (configuration not stated) | 3.924% | 4.083% | -11.24% | 3.263% | 48.39%
CN(C1CCCCC1)S(=O)(=O)NC1CCN(c2ncccn2)CC1 | 10.13% | 3.214% | 5.552% | -3.349% | -30.69%
CNC(=O)c1cc(NC(=O)NC(C)CCc2cccn2C)ccc1F (configuration not stated) | -2.545% | -2.838% | 3.846% | -0.6734% | -158.1%
CS(=O)(=O)NCC1CCCN(c2ccc(C(F)(F)F)cn2)C1 (configuration not stated) | 1.653% | -1.482% | 2.663% | -7.64% | -33.41%
O=S(=O)(CCNC1CCc2ncnn2C1)c1ccccc1 (configuration not stated) | 1.054% | 5.738% | -1.557% | -4.622% | -4.451%
Cc1nc(C)n(C2CCCN(C(=O)c3cc4ccccc4n3C)C2)n1 (configuration not stated) | 8.718% | 2.151% | -3.012% | -2.111% | -20.87%
CCN(C)c1ncnc2c1CCN(Cc1ccsc1)CC2 | 8.705% | 5.593% | - | 2.596% | -4.436%
CCN(C(=O)Nc1cc(C)on1)C(C)c1cccc(O)c1 (configuration not stated) | 2.155% | 5.265% | 11.21% | -1.135% | -28.01%
Cc1ccnc(NC(=O)c2cc(C)oc2C)c1 | -1.29% | 8.686% | 3.448% | -23.67% | 23.89%
Cc1cccc(CN2CCn3cc(Cn4cccn4)nc3C2)n1.O=C(O)C(F)(F)F.O=C(O)C(F)(F)F.O=C(O)C(F)(F)F | - | - | -14.57% | - | -
CN(C)CCNc1ccc(-c2nc(-c3ccccc3F)no2)cn1 | -37.37% | 3.365% | 17.91% | -24.18% | -8.836%
Cc1cc(CN2CCC3(CC2)COC(COCC2CC2)C3)no1 (configuration not stated) | 4.084% | 2.443% | - | - | -
Cc1cnn(CCNCc2cc(-c3ccccc3)no2)c1 | -3.532% | 9.375% | -1.202% | -1.861% | -12.65%
Brc1cc2c(cc1CN1CCC(N3CCCCC3)CC1)OCCO2 | -43.04% | 4.679% | 11.17% | -1.517% | -13.35%
CCC(CO)N(Cc1cccnc1)C(=O)c1ccoc1C (configuration not stated) | 6.203% | 4.53% | -30.8% | 7.342% | -3.872%
O=C(CN1CCN(C(=O)c2ccccc2)CC1)Nc1ccc(Br)cn1 | -5.469% | 4.076% | 0.2651% | 1.699% | -9.217%
Cn1c(=O)oc2ccc(NC(=O)N3CCc4ccccc4C3)cc21 | - | 7.146% | 5.628% | 3.612% | -44.49%
CCNC(=O)[C@@H]1CCCN1[C@@H](C(=O)NC)c1ccccc1 | 15.58% | 11.17% | - | -2.033% | -
COCCN1CCCC2(CCN(c3ncnc(C)c3C)C2)C1=O (configuration not stated) | 0.2475% | 0.9453% | -9.461% | 1.314% | 6.427%
O=C(CCN1CCc2[nH]nc(C(F)(F)F)c2C1)Nc1ccccc1 | -0.8065% | 4.169% | -1.921% | -6.659% | 6.779%
O=C(O)c1cc(/C=C/c2ccc3ccccc3c2)ncn1 | -5.785% | 1.327% | -42.91% | -5.576% | 0.6845%
CCOCC1CC2(CCN(C(=O)c3ccc4ccccc4n3)CC2)CO1 (configuration not stated) | -2.101% | 7.872% | - | 2.616% | -2.81%
CCc1noc(CN(C)C(=O)c2ccccc2-c2ncn[nH]2)n1 | 6.695% | 5.151% | 3.808% | 1.679% | -45.45%
CC1CN(C)c2ccccc2CN1C(=O)c1ccncc1 (configuration not stated) | 11.3% | 0.6607% | 3.612% | 2.78% | -8.891%
Cc1ccc(C(=O)N2CCC3(CC2)CCN(Cc2ccccn2)C3=O)o1 | 1.062% | -3.191% | - | 0.4188% | 2.548%
c1ccc(-c2cnn3cc(CN4CCC5(CCO5)CC4)cnc23)cc1 | 3.268% | -0.03583% | 5.465% | -14.23% | 8.208%
CCc1noc(C(C)N2CCN(Cc3noc(C)n3)CC2)n1 (configuration not stated) | 2.394% | 0.4972% | -2.258% | -0.6289% | -11.22%
Cc1ccccc1OCCN(C)Cc1noc(CC(C)C)n1 | 6.517% | 1.39% | -3.937% | 3.072% | -
Cc1cccc(CN2CCc3ncnc(N4CCCC4)c3CC2)n1 | 5.654% | 5.083% | - | 4.77% | -4.203%
O=C(Cc1ccc2c(c1)CCO2)Nc1cccnc1-n1cncn1 | -7.143% | -1.351% | 8.592% | 13.55% | 28.43%
Cn1nc2c(cc1=O)CN(Cc1nc(-c3ccccn3)no1)CC2 | 2.046% | 1.294% | -18.51% | 4.888% | -17.67%
COCc1cc(O)nc(C2CCCN(Cc3cccc(OC)c3)C2)n1 (configuration not stated) | 2.184% | 4.398% | 5.085% | - | 0.9409%
CCOC(=O)N1CC(=O)N(CCc2ccccc2)CC(O)C1 (configuration not stated) | -2.906% | 3.087% | -17.88% | - | 8.371%
O=C(O)C(F)(F)F.O=C(O)C(F)(F)F.[H][C@@]12COC[C@]1(CNC(=O)N1CCCC1)CN(Cc1cccc(C)n1)C2 | - | - | -0.4631% | - | -

6 of the entries, repeated:

structure,A,B,C,D,E
O=C(O)C(F)(F)F.O=C(O)C(F)(F)F.[H][C@@]12COC[C@]1(CNC(=O)N1CCCC1)CN(Cc1cccc(C)n1)C2,-,-,-0.4631%,-,-
O=S(=O)(CCNC1CCc2ncnn2C1)c1ccccc1 (configuration not stated),1.054%,5.738%,-1.557%,-4.622%,-4.451%
O=C(CCN1CCc2[nH]nc(C(F)(F)F)c2C1)Nc1ccccc1,-0.8065%,4.169%,-1.921%,-6.659%,6.779%
COCCN1CCCC2(CCN(c3ncnc(C)c3C)C2)C1=O (configuration not stated),0.2475%,0.9453%,-9.461%,1.314%,6.427%
Cc1ccnc(NC(=O)c2cc(C)oc2C)c1,-1.29%,8.686%,3.448%,-23.67%,23.89%
CC(C)(C)CC(=O)N1CSCC1C(=O)NCc1cccc(C#N)c1 (configuration not stated),-5.353%,-0.4791%,-109%,16.83%,-7.85%